According to PubChem BioAssay AID504834 (National Center for Advancing Translational Sciences (NCATS), 2011):
About 22,000 (6.9%) of roughly 320,000 compounds were called active. This list was built around the results that the source calls inconclusive (neither active nor inactive); the mix of calls is not that of the screen. Calls come from the whole dose curve; as a rule, active = well fitted inhibition curve with a large enough effect; inconclusive = small, poorly fitted or top-dose-only effect, or another doubt; inactive = no such curve, though single readings can be large or run the other way. Where the call is inconclusive, the potency comes from a doubtful curve fit.

Experiment: Primary qHTS for delayed death inhibitors of the malarial parasite plastid, 96 hour incubation
Conditions: P. falciparum luciferase reporter growth; series mostly up to 28.7 µM; activity change, negative = inhibition: at the top concentration
How it was run: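 P. falciparum expressing integrated firefly luciferase grown in erythrocytes (2% hematocrit, 0.05% parasitemia final) with compounds for 96 hours at 37 C, 5% CO2. Growth inhibition read as loss of luminescence after adding luciferase detection reagent.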
% is set by controls: 0 for no effect and ±100 for the full control effect; potency is the fitted concentration of half-maximal effect.

Row | SMILES | activity change, negative = inhibition | Potency
1 | Cc1ccc(S(=O)(=O)N2CCOC23CCN(C(=O)c2ccccc2Br)CC3)cc1 | inactive: -8.16% | 
2 | CCCN(C(=O)Cc1coc2cc(C)c(C)cc12)c1c(N)n(Cc2ccccc2)c(=O)[nH]c1=O |  | inconclusive: 13.1 µM [inhibitor, partial curve]
3 | C=CCn1c(C(C)NC(=O)c2ccc(C)cc2)n[nH]c1=S (stereo not given) | inactive: -12.1% | 
4 | Cc1ccc(-c2nn(-c3ccccc3)cc2C(=O)NCC(c2cccs2)N2CCOCC2)cc1 (stereo not given) |  | inconclusive: 18.5 µM [inhibitor, single point]
5 | Cc1cccc(/C(N)=N/OC(=O)Cc2cccc3ccccc23)c1 |  | inconclusive: 3.7 µM [inhibitor, full curve]
6 | COc1nc(OC)nc(Oc2ccc([N+](=O)[O-])cc2Cl)n1 | inactive: 8.77% | 
7 | CCOC(=O)N1CCN(C(=O)c2ccc(CS(=O)c3ccccc3)o2)CC1 (stereo not given) | inactive: -21.5% | 
8 | COC(=O)C1Cc2c([nH]c3ccccc23)C(C(C)C)N1 (stereo not given) |  | active: 1.31 µM
9 | C=CCn1c(SCc2nc3scc(-c4ccccc4)c3c(=O)[nH]2)nnc1-c1ccccc1F |  | inconclusive: 18.5 µM [inhibitor, single point]
10 | C=CCn1c(SCC(=O)NC2CCS(=O)(=O)C2)nc2sc(CC)cc2c1=O (stereo not given) |  | inconclusive: 20.8 µM [inhibitor, partial curve, poor fit]
11 | Cc1cc(C)n(-c2nc(Nc3ccccc3)nc(-n3nc(C)cc3C)n2)n1 | inactive: -0.345% | 
12 | Cc1ccc(-c2nc3ccccc3[nH]2)cc1NC(=O)c1sc2cc(Cl)ccc2c1Cl |  | inconclusive: 9.28 µM [inhibitor, single point]
13 | COC(=O)c1c(C)[nH]c(C(=O)C(C)OC(=O)C2CC(=O)N(c3ccc(C)cc3)C2)c1C (stereo not given) |  | inconclusive: 18.5 µM [inhibitor, single point]
14 | O=C(O)c1ccc(N2CCN(C(c3ccccc3)c3ccccc3)CC2)c([N+](=O)[O-])c1 |  | inconclusive: 11.7 µM [inhibitor, partial curve, poor fit]
15 | Cc1cc(=O)n2nc(N3CCCC(C(=O)NCc4ccccc4Cl)C3)sc2n1 (stereo not given) |  | inconclusive: 1.31 µM [inhibitor, partial curve]
16 | O=C(O)c1cc(-c2ccc(Cl)cc2)n(-c2ccc(Cl)cc2)n1 | inactive: 6.14% | 
17 | O=C(O)CC12C[C@H]3C[C@@H](C1)CC(n1ncc(N4CCN(c5ccccc5)CC4)c(Cl)c1=O)(C3)C2 |  | inconclusive: 18.5 µM [inhibitor, single point]
18 | CN(CC(=O)Nc1ccc(C#N)cc1)CC(=O)Nc1ccc(N2CCOCC2)cc1 |  | inconclusive: 18.5 µM [inhibitor, single point]
19 | CCOC(=O)C1=C(c2ccccc2)NC(=O)NC1c1cc(Br)c(O)c(OC)c1 (stereo not given) |  | inconclusive: 20.8 µM [inhibitor, partial curve, poor fit]
20 | O=C(CNC(=O)c1ccccc1F)N/N=C/c1cc(Br)ccc1OC(=O)/C=C/c1ccco1 |  | inconclusive: 18.5 µM [inhibitor, single point]
21 | CN(Cc1cccs1)C(=O)C1CC(=O)N(Cc2ccccc2)C1 (stereo not given) | inactive: 34.4% | 
22 | CCNC(=O)NC(=O)C(C)Sc1nc2ccccc2c(=O)n1-c1cccnc1 (stereo not given) |  | active: 0.928 µM
23 | NNC(=O)CSc1nc(-c2ccccc2)cn1-c1ccccc1 |  | inconclusive: 18.5 µM [inhibitor, single point]

Of the compounds above, these have two or more sulfur atoms:
Row | SMILES | activity change, negative = inhibition | Potency
9 | C=CCn1c(SCc2nc3scc(-c4ccccc4)c3c(=O)[nH]2)nnc1-c1ccccc1F |  | inconclusive: 18.5 µM [inhibitor, single point]
10 | C=CCn1c(SCC(=O)NC2CCS(=O)(=O)C2)nc2sc(CC)cc2c1=O (stereo not given) |  | inconclusive: 20.8 µM [inhibitor, partial curve, poor fit]

(list continues)

Row | SMILES | activity change, negative = inhibition | Potency
24 | O=C(Nc1ccccc1N1CCOCC1)c1ccc(N2CCCC2=O)cc1 |  | inconclusive: 8.28 µM [inhibitor, partial curve]
25 | CCOC(=O)CSc1nnc(SCCN2C(=O)c3ccccc3C2=O)s1 | inactive: 3.95% | 
26 | O=C(Cn1c(=O)oc2cccnc21)Nc1ccc(C(F)(F)F)cc1 | inactive: 0.413% | 
27 | C/C(Cc1ccccc1)=N\NC(=O)CNC(=O)c1ccccc1Cl | inactive: 41.4% | 
28 | COc1ccc(C(=O)NCc2ccccn2)cc1[N+](=O)[O-] | inactive: 39.2% | 
29 | CCCc1ccc(C(=O)COC(=O)CN2C(=O)NC3(CCCCC3C)C2=O)cc1 (stereo not given) | inactive: -10.4% | 
30 | O=C(CSc1ccc(Br)cc1)NCC(c1ccco1)N1CCCCC1 (stereo not given) |  | inconclusive: 14.7 µM [inhibitor, single point]
31 | Cc1ccc(NC(=O)c2ccc(S(=O)(=O)N3CCCCCC3)cc2)nc1 |  | inconclusive: 0.37 µM [inhibitor, full curve, poor fit]
32 | COc1cc(Cl)c(C)cc1NC(=O)COc1ccc(C)nc1[N+](=O)[O-] | inactive: -3.66% | 
33 | COc1ccccc1C(=O)NNC(=S)NC(=O)c1sc2ccccc2c1Cl |  | inconclusive: 18.5 µM [inhibitor, single point]
34 | COc1ccccc1N1C(=O)CCC1(C#N)c1ccc(Br)cc1 (stereo not given) |  | inconclusive: 5.22 µM [inhibitor, partial curve, poor fit]
35 | OCC[C@@H]1C[C@@H](O)[C@H](O)[C@@]2(Cc3ccccc3O2)O1 | inactive: 0% | 
36 | Cc1nn(-c2nnc(NCc3ccccc3)nn2)c(C)c1Br |  | active: 0.329 µM
37 | CCOC(=O)N1CCN(c2c(NCCN(C)Cc3ccccc3)c(=O)c2=O)CC1 |  | inconclusive: 9.28 µM [inhibitor, partial curve, poor fit]
38 | CSCCC(NS(=O)(=O)c1ccc(C)cc1)C(=O)NCC(C)(C)N1CCOCC1 (stereo not given) |  | inconclusive: 18.5 µM [inhibitor, single point]
39 | O=C(CCN1C(=O)C2C3C=CC(C3)C2C1=O)Oc1ccc2ccccc2c1 (stereo not given) |  | inconclusive: 18.5 µM [inhibitor, single point]
40 | CN(C)S(=O)(=O)c1ccc(Cl)c(C(=O)OCC(=O)NNC(=O)c2cccs2)c1 | inactive: 31.4% | 
41 | CCOC(=O)c1sc(NC(=S)NC(=O)C2CC2)cc1C |  | inconclusive: 14.7 µM [inhibitor, single point]
42 | CCOC(=O)C1CCN(S(=O)(=O)c2cn(C)c(=O)n(C)c2=O)CC1 | inactive: 4.29% | 
43 | CN(C(=O)COC(=O)CCc1c[nH]c2ccccc12)c1ccccc1 | inactive: -1.16% | 
44 | N/C(=N/O)c1nc(N2CCCC2)nc(N(c2ccccc2)c2ccccc2)n1 |  | inconclusive: 10.4 µM [inhibitor, single point]
45 | Cc1ccccc1-n1c(=O)c2c(n3cnnc13)-c1ccccc1CC21CCCCC1 |  | inconclusive: 8.28 µM [inhibitor, partial curve, poor fit]
